The results in this text go back to PMC4751363.

Sequences of proteins named here, by UniProt entry; tags and fusion partners are left off. A change or cut given only in a name is not applied to a line headed by its entry.
UniProt Q9Z0F8: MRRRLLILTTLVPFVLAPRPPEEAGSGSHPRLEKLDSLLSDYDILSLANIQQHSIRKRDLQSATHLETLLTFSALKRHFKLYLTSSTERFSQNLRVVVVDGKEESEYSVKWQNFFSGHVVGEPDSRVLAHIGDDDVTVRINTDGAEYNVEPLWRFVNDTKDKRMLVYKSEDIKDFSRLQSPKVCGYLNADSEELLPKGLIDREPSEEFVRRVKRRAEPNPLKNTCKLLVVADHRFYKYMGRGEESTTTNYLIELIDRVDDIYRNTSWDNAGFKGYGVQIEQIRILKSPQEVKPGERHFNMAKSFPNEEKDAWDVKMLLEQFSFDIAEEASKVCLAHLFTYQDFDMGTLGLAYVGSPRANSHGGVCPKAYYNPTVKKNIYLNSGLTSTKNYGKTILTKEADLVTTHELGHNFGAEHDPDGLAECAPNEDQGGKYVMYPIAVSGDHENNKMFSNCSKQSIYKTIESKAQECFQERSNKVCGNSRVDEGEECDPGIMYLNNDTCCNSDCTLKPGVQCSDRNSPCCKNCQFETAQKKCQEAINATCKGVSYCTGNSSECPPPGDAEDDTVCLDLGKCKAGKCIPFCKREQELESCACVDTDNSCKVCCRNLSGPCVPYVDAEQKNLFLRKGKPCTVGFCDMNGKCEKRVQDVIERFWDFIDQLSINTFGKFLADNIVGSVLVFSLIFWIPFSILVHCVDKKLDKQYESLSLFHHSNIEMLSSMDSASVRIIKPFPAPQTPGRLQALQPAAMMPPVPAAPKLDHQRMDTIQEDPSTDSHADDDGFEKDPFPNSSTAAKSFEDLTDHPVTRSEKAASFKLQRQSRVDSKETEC

No constants are given. Whether binding was seen depends on the method and setting. In cells and extracts the contact can be indirect. Where a sequence is shown, tags or fusion partners need not be part of it.

The target in this test is T1, FLAG-tagged mouse Tspan14 (mouse) (UniProt Q8QZY6).
T1 sequence: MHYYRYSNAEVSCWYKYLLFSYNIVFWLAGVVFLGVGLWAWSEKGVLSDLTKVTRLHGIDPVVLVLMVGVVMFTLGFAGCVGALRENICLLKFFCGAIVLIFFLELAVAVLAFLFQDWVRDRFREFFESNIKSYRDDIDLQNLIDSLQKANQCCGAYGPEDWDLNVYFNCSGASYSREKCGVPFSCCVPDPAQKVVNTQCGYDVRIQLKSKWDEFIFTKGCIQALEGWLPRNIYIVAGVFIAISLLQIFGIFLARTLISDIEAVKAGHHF
The experiment in a line: co-IP; HEK-293T co-transfected with FLAG-tagged mouse TspanC8s and HA-tagged mouse ADAM10/ADAM17 constructs or pDisplay human ADAM10 truncations; 1% digitonin lysis; anti-FLAG immunoprecipitation; anti-HA blot.

With “C-terminal HA-tagged mouse ADAM17 (from UniProt Q9Z0F8) (enzyme)”, the binding entry is given as “no binding”.
